Laboratory results taken from US8431596B2 (Cancer Research Technology Limited, priority 2007, dated 2013).

Experiments:
[1] = tested on: Axl activation via the downstream phosphorylation of Akt (serine 473); test: AXL Inhibition Cell Based ELISA Assay (FACE kit, Gas6-stimulated MDA-MB-231 cells); details: Homo sapiens, first data set, Gas6 200 ng/ml, pS473 Akt
Method: AXL Inhibition Cell Based ELISA Assay
This cell based ELISA assay is a simple cell-based method used to monitor activation of proteins by phosphorylation. The Active Motif, Fast Activated Cell-based ELISA (FACE) kit (Active Motif Cat No: 48120) was used in this case to monitor the inhibition, by test compounds, of Axl activation via the downstream phosphorylation of Akt (serine 473). In this system, cells are cultured in 96 well plates and treated with test compounds and Axl is activated by the introduction of Gas6 (Axl ligand). The inhibition of Axl can be directly assessed via the reduction of pS^473 Akt levels.
Active Motif FACE Kit reagents (Active Motif Cat. No: 48120(AKT)).
10% hydrogen peroxide (Sigma H1009).
10% Sodium azide (Sigma 7128).
37% Formaldehyde (Sigma F8775).
Axl/Fc conjugate (R&D Systems 154-AL).
Recombinant mouse Gas6 (R&D Systems 986-GS-025).
All cell incubations were carried out in humidified incubators set at 5% CO2 and 37° C. […]
Immunostaining (carried out as outlined in FACE kit protocol). […] 100 μL developing solution was added to each well and monitored for colour change to medium to dark blue (2 to 20 minutes). 100 μL of stop solution was then added and absorbance was read at 450 nm within 5 minutes of addition.
Crystal Violet cell staining. After reading absorbance at 450 nm, the plates were washed twice with 200 μL wash buffer and twice with 200 μL PBS. […]

[2] = target: T1, AXL (human catalytic domain) (Homo sapiens, UniProt P30530); test: AXL (human catalytic domain) Enzyme Activity Assay (IMAP fluorescence polarisation); format: biochemical
T1 construct: purchased Upstate Ltd. 14-512
T1 sequence (P30530 473-894): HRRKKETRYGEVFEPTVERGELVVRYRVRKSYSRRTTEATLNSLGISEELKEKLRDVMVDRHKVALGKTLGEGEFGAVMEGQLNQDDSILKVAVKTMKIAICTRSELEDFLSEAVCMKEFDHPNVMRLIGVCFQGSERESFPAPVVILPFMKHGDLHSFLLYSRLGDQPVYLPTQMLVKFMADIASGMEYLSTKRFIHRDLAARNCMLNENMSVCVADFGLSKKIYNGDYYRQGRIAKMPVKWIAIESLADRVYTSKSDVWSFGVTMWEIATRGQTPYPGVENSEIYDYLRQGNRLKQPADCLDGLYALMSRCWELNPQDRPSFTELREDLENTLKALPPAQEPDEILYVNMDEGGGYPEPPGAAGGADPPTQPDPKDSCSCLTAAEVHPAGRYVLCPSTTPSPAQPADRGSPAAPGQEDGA
Method: Biological Methods AXL (human catalytic domain) Enzyme Activity Assay Reagents
Kinase Assay Reaction Buffer: This consisted of 20 mM HEPES pH 7.0, 10 mM MgCl2, 1 mM DTT, […], 0.01% Triton X100 (v/v), and 0.01% BSA (w/v). All buffer components were purchased from Sigma-Aldrich at reagent grade or higher.
Kinase: Recombinant AXL isoform 1 (aa473-894 corresponding to Genbank Accession Number NP 068713) at 2 mg/mL (20.8 μM) was purchased from Upstate Ltd. (Product code 14-512, lot #28164U). The enzyme was stored at −80° C. and a working stock was prepared to a concentration of 30 nM by diluting 20.8 μM stock 1:693 in cold (4° C.) 1× Reaction Buffer. […]
ATP: Supplied by Sigma (product code A-7699). […] Final ATP concentration in the assay was 150 μM; this concentration represents the KM.ATP for this enzyme calculated in this assay. […]
1 μL samples of test compounds in 10% DMSO/water were added to “test” wells by dry-spotting using a Matrix Platemate Plus. […] The FP on a Tecan Ultra Plate reader was recorded as a single read at Ex485 Em535.
Percentage inhibition was calculated based on activity of the test sample minus the average values in the blank wells relative to the average values measured in control wells minus the average values in the blank wells.
IC50 values were calculated from 10 point dose sigmoid ‘dose-response’ curves using XIfit software (IDBS Inc, USA). […]

IC50 [1]: 3000 nM
IC50 ([2]; first data set, recombinant AXL isoform 1 aa473-894, 150 μM ATP): < 1000 nM
IC50 ([2]; further data set (WW-001 through WW-169, XX-001 through XX-469, YY-001 through YY-016, ZZ-001 through ZZ-003), 150 μM ATP): 100 to 1000 nM
SMILES: COc1ccc(-c2nccc3nc(Nc4ccc(OCCN5CCCC5)cc4)nn23)cc1 [YY-001, [5-(4-Methoxy-phenyl)-[1,2,4]triazolo[1,5-c]pyrimidin-2-yl]-[4-(2-pyrrolidin-1-yl-ethoxy)-phenyl]-amine]
